Article doi:10.1101/2025.01.13.632856
These are yes or no findings as the source states them, for the method shown. In cells and extracts the contact can be indirect. Some entries that bind do so weakly or less than the wild type. For some assays here: Where a sequence is shown, tags or fusion partners need not be part of it.

Protein sequences, listed by entry. Tags and fused reporters are not part of them. Residues count along the entry.
UniProt P35916, residues 25-1363: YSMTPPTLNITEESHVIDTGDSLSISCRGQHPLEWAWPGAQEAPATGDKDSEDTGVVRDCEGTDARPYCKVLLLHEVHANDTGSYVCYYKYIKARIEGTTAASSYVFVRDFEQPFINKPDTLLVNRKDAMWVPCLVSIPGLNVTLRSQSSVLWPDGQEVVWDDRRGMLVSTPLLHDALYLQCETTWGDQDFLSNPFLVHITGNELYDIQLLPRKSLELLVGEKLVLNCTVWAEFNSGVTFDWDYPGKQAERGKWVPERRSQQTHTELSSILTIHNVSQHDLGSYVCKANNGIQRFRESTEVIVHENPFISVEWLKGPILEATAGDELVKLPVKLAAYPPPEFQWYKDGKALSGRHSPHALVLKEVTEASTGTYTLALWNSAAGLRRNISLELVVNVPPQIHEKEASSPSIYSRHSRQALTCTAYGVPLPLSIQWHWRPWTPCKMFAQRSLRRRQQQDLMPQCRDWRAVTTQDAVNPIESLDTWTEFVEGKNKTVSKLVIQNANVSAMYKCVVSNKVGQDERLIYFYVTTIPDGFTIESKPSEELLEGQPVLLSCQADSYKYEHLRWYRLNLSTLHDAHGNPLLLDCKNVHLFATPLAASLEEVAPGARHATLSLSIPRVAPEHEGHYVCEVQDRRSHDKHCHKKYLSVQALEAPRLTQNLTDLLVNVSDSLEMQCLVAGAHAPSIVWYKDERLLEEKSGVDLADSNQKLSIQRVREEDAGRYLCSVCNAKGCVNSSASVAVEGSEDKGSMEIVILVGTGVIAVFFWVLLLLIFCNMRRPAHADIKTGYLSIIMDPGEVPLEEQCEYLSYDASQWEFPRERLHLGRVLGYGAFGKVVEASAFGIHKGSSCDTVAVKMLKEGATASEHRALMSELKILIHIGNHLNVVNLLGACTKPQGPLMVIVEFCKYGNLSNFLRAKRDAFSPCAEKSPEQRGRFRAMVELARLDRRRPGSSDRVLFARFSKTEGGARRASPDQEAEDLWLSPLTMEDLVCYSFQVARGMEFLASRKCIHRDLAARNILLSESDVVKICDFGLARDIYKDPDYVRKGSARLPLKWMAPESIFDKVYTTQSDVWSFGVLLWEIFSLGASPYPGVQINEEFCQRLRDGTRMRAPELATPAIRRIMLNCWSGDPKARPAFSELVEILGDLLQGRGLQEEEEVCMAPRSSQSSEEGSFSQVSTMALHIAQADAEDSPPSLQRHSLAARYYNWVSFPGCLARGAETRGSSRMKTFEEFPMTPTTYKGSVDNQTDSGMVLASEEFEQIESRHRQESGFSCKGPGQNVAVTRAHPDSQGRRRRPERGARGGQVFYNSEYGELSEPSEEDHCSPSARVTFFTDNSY

What was measured:
Flag-tagged SGLT1 = target: T1, Flag-tagged SGLT1 (UniProt P13866); assay: co-IP
T1 sequence: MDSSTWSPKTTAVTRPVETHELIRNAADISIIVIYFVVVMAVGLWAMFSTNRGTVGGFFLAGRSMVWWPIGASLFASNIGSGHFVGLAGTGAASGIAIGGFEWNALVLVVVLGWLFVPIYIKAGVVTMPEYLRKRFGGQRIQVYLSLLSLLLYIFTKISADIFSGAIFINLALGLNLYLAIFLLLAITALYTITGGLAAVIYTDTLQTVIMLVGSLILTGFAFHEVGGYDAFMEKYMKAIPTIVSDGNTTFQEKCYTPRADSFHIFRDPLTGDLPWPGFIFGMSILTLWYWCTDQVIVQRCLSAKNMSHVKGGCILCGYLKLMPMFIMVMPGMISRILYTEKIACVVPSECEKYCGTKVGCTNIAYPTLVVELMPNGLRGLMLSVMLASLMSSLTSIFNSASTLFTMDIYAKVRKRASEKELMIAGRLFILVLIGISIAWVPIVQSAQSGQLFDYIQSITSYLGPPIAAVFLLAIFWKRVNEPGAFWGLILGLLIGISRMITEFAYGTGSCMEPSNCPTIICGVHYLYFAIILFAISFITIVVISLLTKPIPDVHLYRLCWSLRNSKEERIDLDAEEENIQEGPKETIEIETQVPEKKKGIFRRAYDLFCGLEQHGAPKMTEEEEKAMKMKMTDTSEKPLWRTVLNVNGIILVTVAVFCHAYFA

[1] = target: T2, SGLT1 (endogenous, JHH-7 cells) (human (endogenous in JHH-7)) (UniProt P13866); assay: co-IP
T2 sequence: T1 sequence

Row | Substance | binding (Flag-tagged SGLT1) | binding [1]
1 | HA-tagged VEGFR3 (from UniProt P35916 25-1363) (receptor) | binds | –
2 | VEGFR3 (endogenous, JHH-7 cells) (from UniProt P35916 25-1363) (receptor) | – | binds
